These are yes or no findings as the source states them, for the method shown. Binding seen in cells or lysates may run through a third protein.
Target: p53 (wild-type, endogenous in U87 glioblastoma cells) (human (endogenous in U87)), P04637
Assay: co-IP; endogenous proteins; lysates of U87, LN215 and SNB19 cells incubated with anti-p53 monoclonal antibody (sc-126) at 4 °C overnight, protein A/G agarose 3 h, immunoblot
Details: remark: other sources report otherwise

- binding: no binding
B1: KDM4D (endogenous in glioblastoma cells), Q6B0I6 1-523 (protein)
chain: METMKSKANCAQNPNCNIMIFHPTKEEFNDFDKYIAYMESQGAHRAGLAKIIPPKEWKARETYDNISEILIATPLQQVASGRAGVFTQYHKKKKAMTVGEYRHLANSKKYQTPPHQNFEDLERKYWKNRIYNSPIYGADISGSLFDENTKQWNLGHLGTIQDLLEKECGVVIEGVNTPYLYFGMWKTTFAWHTEDMDLYSINYLHLGEPKTWYVVPPEHGQRLERLARELFPGSSRGCGAFLRHKVALISPTVLKENGIPFNRITQEAGEFMVTFPYGYHAGFNHGFNCAEAINFATPRWIDYGKMASQCSCGEARVTFSMDAFVRILQPERYDLWKRGQDRAVVDHMEPRVPASQELSTQKEVQLPRRAALGLRQLPSHWARHSPWPMAARSGTRCHTLVCSSLPRRSAVSGTATQPRAAAVHSSKKPSSTPSSTPGPSAQIIHPSNGRRGRGRPPQKLRAQELTLQTPAKRPLLAGTTCTASGPEPEPLPEDGALMDKPVPLSPGLQHPVKASGCSWAPVP

— publication PMC7814060
